In PubChem BioAssay AID504834 (National Center for Advancing Translational Sciences (NCATS), 2011):
Among all 320,000 compounds or so, about 22,000 (6.9%) were called active. The shares of active, inactive and inconclusive entries below differ from those in the screen. Calls follow the shape of the dose curve; as a rule, active = well fitted inhibition curve with a large enough effect; inconclusive = small, poorly fitted or top-dose-only effect, or another doubt; inactive = no such curve, though single readings can be large or run the other way. Potencies beside an inconclusive call are fits to weak or partial responses and may not hold up.

experiment: Primary qHTS for delayed death inhibitors of the malarial parasite plastid, 96 hour incubation; settings: P. falciparum luciferase reporter growth; series mostly up to 28.7 µM; activity change, negative = inhibition: at the top concentration
Summary of the method: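 Parasite growth measured via integrated firefly luciferase reporter in P. falciparum. Infected erythrocytes at 2% hematocrit, 0.05% parasitemia final were treated 96 hours at 37 C under 5% CO2, and luminescence was read.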
% is scaled to controls: 0 for no effect and ±100 for the full control effect; potency is read from the fitted curve at half-maximal effect.

Q: With `Cc1ccc(NC(=O)c2c(C(F)(F)F)nn(C)c2SCc2cccc(C(F)(F)F)c2)cc1C` as the molecule, how does the Potency read?
A: inconclusive: 18.5 µM [inhibitor, single point]

Q: Which “activity change, negative = inhibition” value does the source give for `CS(=O)(=O)N1CCN(c2ccccc2NC(=O)Nc2cccc(Cl)c2)CC1` here?
A: inactive: -18.1%

Q: Which “activity change, negative = inhibition” value does the source give for `CC(C)CNC(=O)C(=O)NCC1OCCCN1S(=O)(=O)c1ccc2c(c1)OCCO2` (centres undefined) here?
A: inactive: -5.91%

Q: For `Cc1nn(-c2ccccc2)c(Cl)c1/C=N/NC(=O)c1ccc(NS(=O)(=O)c2cccs2)cc1`, which “activity change, negative = inhibition” value is on record?
A: inactive: -7.69%

Q: Which Potency does the source give for `Cc1cccc(C)c1NC(=O)c1ccc(-c2ccc(Cl)cc2Cl)o1` here?
A: inconclusive: 8.28 µM [inhibitor, partial curve, poor fit]

Q: For `CCOC(=O)c1c(NC(=O)c2c(-c3ccccc3)noc2C)sc(C)c1-c1ccccc1`, which Potency is on record?
A: active: 6.57 µM

Q: With `Cn1nc(C(C)(C)C)c([N+](=O)[O-])c1C(=O)Nc1ccc(Br)cc1` as the molecule, how does the Potency read?
A: inconclusive: 18.5 µM [inhibitor, single point]

Q: Which Potency does the source give for `O=C(Nc1cc(C(F)(F)F)cc(C(F)(F)F)c1)c1ccc(Cn2cc(C(F)(F)F)ccc2=O)cc1` here?
A: inconclusive: 11.7 µM [inhibitor, partial curve, poor fit]

Q: With `CCCCOc1ccc(C(=O)NCC(=O)N2CCN(Cc3ccc4c(c3)OCO4)CC2)cc1` as the molecule, how does the Potency read?
A: inconclusive: 10.4 µM [inhibitor, single point]

Q: For `Cc1[nH][nH]c(=O)c1/C=N/N1CCOCC1`, which Potency is on record?
A: inconclusive: 0.0465 µM [inhibitor, full curve, poor fit]

Q: Which “activity change, negative = inhibition” value does the source give for `NS(=O)(=O)c1ccc(NC(=S)N2CCN(S(=O)(=O)c3ccc(F)cc3)CC2)cc1` here?
A: inactive: -1.83%

Q: Which Potency does the source give for `CC1CN(CC(O)COC2CCC(C(C)(C)C)CC2)CC(C)O1` (centres undefined) here?
A: inconclusive: 0.465 µM [inhibitor, partial curve, poor fit]

Q: Which “activity change, negative = inhibition” value does the source give for `Cc1cnc(C(=O)Nc2ccc(N3CCCCC3)cc2)cn1` here?
A: inactive: 219%

Q: Which Potency does the source give for `CCOC(=O)C1=C(C)C/C(=N\NC(=O)c2ccccc2O)CC1` here?
A: inconclusive: 18.5 µM [inhibitor, single point]

Q: With `CCC(=O)N1CCc2cc(Br)cc(S(=O)(=O)NCC3CCCN3CC)c21` (centres undefined) as the molecule, how does the “activity change, negative = inhibition” value read?
A: inactive: 14.9%

Q: For `O=c1c2ccccc2sc2nc(C3CCCCC3)n(Cc3ccco3)c(=O)c12`, which Potency is on record?
A: active: 6.57 µM

Q: With `Cc1cc(OCCCCn2ccnc2)cc(C)c1Cl` as the molecule, how does the Potency read?
A: inconclusive: 18.5 µM [inhibitor, single point]

Q: With `COc1ccc(CCNC(=O)Nc2ccc(F)cc2F)cc1OC` as the molecule, how does the “activity change, negative = inhibition” value read?
A: inactive: -14.2%

Q: With `CC(C)NC(=O)CN1CCN(C(=O)CCl)CC1` as the molecule, how does the Potency read?
A: inconclusive: 13.1 µM [inhibitor, single point]

Q: With `CC(=O)Nc1ccc(NC(=O)C2CCN(S(=O)(=O)c3ccc4c(c3)OCCO4)CC2)cc1` as the molecule, how does the Potency read?
A: inconclusive: 18.5 µM [inhibitor, single point]

Q: Which Potency does the source give for `Cc1nnc(SCC(=O)Nc2ccccc2)n1CCc1ccccc1` here?
A: inconclusive: 14.7 µM [inhibitor, partial curve, poor fit]

Q: With `CCC1CCCCN1C(=O)COc1cc(=O)n(C)c2ccccc12` (centres undefined) as the molecule, how does the Potency read?
A: inconclusive: 18.5 µM [inhibitor, partial curve, poor fit]

Q: Which Potency does the source give for `CC(C)CC(=O)/C=C/n1c(=S)oc2ccccc21` here?
A: inconclusive: 0.0828 µM [inhibitor, full curve, poor fit]

Q: Which Potency does the source give for `CCC1(CC)N=C(c2ccccc2)C(=S)N1` here?
A: inconclusive: 3.7 µM [inhibitor, partial curve, poor fit]

Q: Which Potency does the source give for `Cc1cccc(C)c1NC(=O)CN(C)C(=O)CSCc1c(C)noc1C` here?
A: inconclusive: 0.828 µM [inhibitor, full curve]

Q: For `O=C(Nc1c(C(=O)N2CCOCC2)cnn1-c1ccccc1)c1ccco1`, which “activity change, negative = inhibition” value is on record?
A: inactive: 181%

Q: Which Potency does the source give for `COc1ccccc1S(=O)(=O)Nc1cc(S(=O)(=O)N2CCCCC2)ccc1N1CCOCC1` here?
A: inconclusive: 1.65 µM [inhibitor, full curve]

Q: Which Potency does the source give for `COc1ccccc1NC(=O)CN1CC(=O)Nc2ccccc21` here?
A: inconclusive: 10.4 µM [inhibitor, partial curve]

Q: Which Potency does the source give for `CCOc1ccc(Nc2nc(NCc3ccco3)nc(N)c2[N+](=O)[O-])cc1` here?
A: inconclusive: 18.5 µM [inhibitor, partial curve, poor fit]

Q: Which Potency does the source give for `CCC(=O)N1N=C(c2c(-c3ccccc3)c3cc(Cl)ccc3[nH]c2=O)CC1c1ccco1` (centres undefined) here?
A: inconclusive: 13.1 µM [inhibitor, single point]

Q: For `COc1ccc2[nH]c(=O)c(CN(Cc3cccnc3)C(=S)NCC3CCCO3)cc2c1` (centres undefined), which Potency is on record?
A: inconclusive: 10.4 µM [inhibitor, partial curve]

Q: For `CC(C)[C@H](NC(=O)N1CC(=O)Nc2ccccc21)C(=O)N[C@@H](Cc1ccccc1)C(=O)O`, which “activity change, negative = inhibition” value is on record?
A: inactive: -0.884%

Q: With `COc1cccc(/C=C2\N=C(c3cncc(Br)c3)OC2=O)c1` as the molecule, how does the “activity change, negative = inhibition” value read?
A: inactive: 43.2%

Q: With `COc1ccc(C)c(-n2c(N)cc(=O)n(Cc3ccccc3)c2=O)c1` as the molecule, how does the Potency read?
A: inconclusive: 9.28 µM [inhibitor, partial curve, poor fit]
